Paper doi:10.1101/2025.10.08.681146
Results are given in words; binding and its absence hold for the method and conditions named. In cells and extracts the contact can be indirect. Sequences can lack the tags named with a protein.

Biological target: T1, WIPI1^HA (HA-tagged WIPI1) (human) (UniProt Q5MNZ9)
T1 sequence: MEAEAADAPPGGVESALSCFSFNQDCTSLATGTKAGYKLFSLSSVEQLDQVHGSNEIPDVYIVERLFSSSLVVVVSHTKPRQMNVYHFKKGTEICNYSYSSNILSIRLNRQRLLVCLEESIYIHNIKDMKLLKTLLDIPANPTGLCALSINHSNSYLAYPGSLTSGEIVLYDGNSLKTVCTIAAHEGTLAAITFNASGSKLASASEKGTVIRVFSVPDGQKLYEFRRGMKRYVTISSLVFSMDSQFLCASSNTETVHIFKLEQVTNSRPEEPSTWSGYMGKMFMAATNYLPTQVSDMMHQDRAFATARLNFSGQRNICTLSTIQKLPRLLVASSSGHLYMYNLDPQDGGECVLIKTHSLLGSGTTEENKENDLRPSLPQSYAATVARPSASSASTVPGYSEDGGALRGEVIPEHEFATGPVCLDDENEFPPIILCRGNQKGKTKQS
Test: co-IP

## VPS26C (Retriever subunit) (from UniProt O14972 1-297)
  binding: no binding
